The source of these data is publication PMC12219410.

No constants are given. Whether binding was seen depends on the method and setting. A result given as binding can be weak or reduced; the word gives no strength. For part of these data: In cells and extracts the contact can be indirect.

Assay [1] addresses T1, mCherry::DRSH-1 (C. elegans) (UniProt O01326).
T1 sequence: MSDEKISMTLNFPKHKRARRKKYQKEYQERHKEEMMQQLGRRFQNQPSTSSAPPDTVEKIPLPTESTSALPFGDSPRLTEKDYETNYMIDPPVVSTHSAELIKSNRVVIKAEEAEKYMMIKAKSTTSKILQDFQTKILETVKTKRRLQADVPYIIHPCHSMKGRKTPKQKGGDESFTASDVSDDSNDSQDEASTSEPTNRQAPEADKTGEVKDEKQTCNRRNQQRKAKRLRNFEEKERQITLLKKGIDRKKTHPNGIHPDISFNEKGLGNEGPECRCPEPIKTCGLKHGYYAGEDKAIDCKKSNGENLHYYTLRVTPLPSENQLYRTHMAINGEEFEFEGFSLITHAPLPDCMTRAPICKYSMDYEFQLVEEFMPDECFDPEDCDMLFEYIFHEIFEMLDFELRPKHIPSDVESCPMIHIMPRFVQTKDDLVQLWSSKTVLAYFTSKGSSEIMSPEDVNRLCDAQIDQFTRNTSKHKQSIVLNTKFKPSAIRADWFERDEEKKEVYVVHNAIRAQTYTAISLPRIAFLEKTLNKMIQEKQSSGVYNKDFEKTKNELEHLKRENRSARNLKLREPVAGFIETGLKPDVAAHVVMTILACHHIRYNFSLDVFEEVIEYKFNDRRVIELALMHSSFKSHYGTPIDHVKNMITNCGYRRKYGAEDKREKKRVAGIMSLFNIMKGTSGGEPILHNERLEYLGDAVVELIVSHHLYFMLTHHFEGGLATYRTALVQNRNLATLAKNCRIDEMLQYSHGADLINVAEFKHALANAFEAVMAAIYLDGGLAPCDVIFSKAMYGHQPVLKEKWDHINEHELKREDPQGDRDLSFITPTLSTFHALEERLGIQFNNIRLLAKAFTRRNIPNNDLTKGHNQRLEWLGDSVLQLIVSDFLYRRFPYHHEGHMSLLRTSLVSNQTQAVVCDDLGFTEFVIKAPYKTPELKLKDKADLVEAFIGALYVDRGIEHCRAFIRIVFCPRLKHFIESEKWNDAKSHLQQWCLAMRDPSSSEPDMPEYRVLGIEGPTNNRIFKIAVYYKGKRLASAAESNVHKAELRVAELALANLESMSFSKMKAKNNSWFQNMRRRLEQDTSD
The assay can be described thus: SEC; C. elegans lysate treated with 0.5 μg/μL RNase I for 1 h at 4 °C, separated on Superdex 200 Increase 10/300 GL; fractions analysed by Western blot for GFP and mCherry. (Size exclusion chromatography separates by hydrodynamic size, large species first.)

In assay [2] the target is T1, mCherry::DRSH-1 (C. elegans). The assay can be described thus: co-IP; mCherry::DRSH-1 precipitated from gravid adult C. elegans lysate with RFP-Trap magnetic agarose beads, 1 h at 4 °C; 50 mM Tris-Cl pH 7.4, 100 mM KCl, 2.5 mM MgCl2, 0.1% Igepal CA-630; Western blot for GFP. In general terms: In western blotting, separated proteins are transferred to a membrane and probed.

The next assay deals with PASH-1::GFP (C. elegans). The assay is described as follows: co-IP; PASH-1::GFP forms precipitated from gravid adult C. elegans lysate with GFP-Trap magnetic agarose beads, 1 h at 4 °C; 50 mM Tris-Cl pH 7.4, 100 mM KCl, 2.5 mM MgCl2, 0.1% Igepal CA-630; Western blot for mCherry.
Assay [3] deals with PASH-1[G179R]::GFP (C. elegans). The description is as above.
Assay [4] concerns the target PASH-1[Δ12-148]::GFP (C. elegans). The description is as above.

On to PASH-1[W180A]::GFP (C. elegans), for which the binding result in assay [1] and in assay [2] was “binds” each time.

As for PASH-1::GFP (C. elegans), the binding entry in assay [1] and in assay [2] was “binds” in each case.

For the molecule PASH-1[G179R]::GFP (C. elegans), the binding entry in assay [1] and in assay [2] was “binds” each time.

B1: mCherry::DRSH-1 (enzyme, UniProt O01326 1-1086)
chain: MSDEKISMTLNFPKHKRARRKKYQKEYQERHKEEMMQQLGRRFQNQPSTSSAPPDTVEKIPLPTESTSALPFGDSPRLTEKDYETNYMIDPPVVSTHSAELIKSNRVVIKAEEAEKYMMIKAKSTTSKILQDFQTKILETVKTKRRLQADVPYIIHPCHSMKGRKTPKQKGGDESFTASDVSDDSNDSQDEASTSEPTNRQAPEADKTGEVKDEKQTCNRRNQQRKAKRLRNFEEKERQITLLKKGIDRKKTHPNGIHPDISFNEKGLGNEGPECRCPEPIKTCGLKHGYYAGEDKAIDCKKSNGENLHYYTLRVTPLPSENQLYRTHMAINGEEFEFEGFSLITHAPLPDCMTRAPICKYSMDYEFQLVEEFMPDECFDPEDCDMLFEYIFHEIFEMLDFELRPKHIPSDVESCPMIHIMPRFVQTKDDLVQLWSSKTVLAYFTSKGSSEIMSPEDVNRLCDAQIDQFTRNTSKHKQSIVLNTKFKPSAIRADWFERDEEKKEVYVVHNAIRAQTYTAISLPRIAFLEKTLNKMIQEKQSSGVYNKDFEKTKNELEHLKRENRSARNLKLREPVAGFIETGLKPDVAAHVVMTILACHHIRYNFSLDVFEEVIEYKFNDRRVIELALMHSSFKSHYGTPIDHVKNMITNCGYRRKYGAEDKREKKRVAGIMSLFNIMKGTSGGEPILHNERLEYLGDAVVELIVSHHLYFMLTHHFEGGLATYRTALVQNRNLATLAKNCRIDEMLQYSHGADLINVAEFKHALANAFEAVMAAIYLDGGLAPCDVIFSKAMYGHQPVLKEKWDHINEHELKREDPQGDRDLSFITPTLSTFHALEERLGIQFNNIRLLAKAFTRRNIPNNDLTKGHNQRLEWLGDSVLQLIVSDFLYRRFPYHHEGHMSLLRTSLVSNQTQAVVCDDLGFTEFVIKAPYKTPELKLKDKADLVEAFIGALYVDRGIEHCRAFIRIVFCPRLKHFIESEKWNDAKSHLQQWCLAMRDPSSSEPDMPEYRVLGIEGPTNNRIFKIAVYYKGKRLASAAESNVHKAELRVAELALANLESMSFSKMKAKNNSWFQNMRRRLEQDTSD
Consider B1, for which the binding entry (with PASH-1::GFP (C. elegans); in assay [3]; in assay [4]) was “binds” throughout.
